# Results from one PubChem assay

Data taken from PubChem BioAssay AID977624, deposited by Broad Institute (2014).

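GFP-tagged normal-ribosome E. coli mixed with an RFP-tagged h34 humanized strain, with green signal taken as growth after 24 hours.
The value is the change in activity at the highest dose tested; more negative means stronger inhibition.
Active requires GFP to fall at least twice as much as RFP with growth loss below a set limit; inconclusive means no clear call; everything else is inactive.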

These entries are mostly ones the record files as inconclusive; other results of the assay are not listed here.

CC(=O)Nc1cccc2c1Cc1cc([N+](=O)[O-])ccc1-2 [at 50 µM (top of the series)] read activity change 36.66 (inconclusive). For COc1ccc(-c2cn3c(C)c(C(=O)Nc4cccc(C)n4)sc3n2)cc1 [at 50 µM (top of the series)] the result was activity change -13.53 (inconclusive). CCN(CC)CCNC(=O)c1cc2cc3ccc(OC)cc3nc2o1 [at 50 µM (top of the series)] read activity change 22.64 (inconclusive). For CS(=O)(=O)c1ccc(C(=O)Nc2nc(-c3ccco3)c(-c3ccco3)s2)cc1 [at 50 µM (top of the series)] the result was activity change -1.897 (inactive).

With C[C@@H]1CN([C@@H](C)CO)C(=O)c2cccc(NC(=O)Nc3ccccc3)c2O[C@@H]1CN(C)S(=O)(=O)c1ccc(Cl)cc1 [at 50 µM (top of the series)] the assay gave activity change -27.32 (inconclusive). Result for Cn1cc([N+](=O)[O-])c(C(=O)Nc2ccn(C34CC5CC(CC(C5)C3)C4)n2)n1 [at 50 µM (top of the series)] was activity change -11.62 (inconclusive). COc1cccc(S(=O)(=O)N2CCCCN3[C@H](C2)[C@H](c2ccc(C#CC(C)C)cc2)[C@@H]3CO)c1 [at 50 µM (top of the series)] gave activity change 15.26 (inconclusive). Result for O=C(C1Cc2ccccc2CN1C(=O)c1ccccc1)N1CCN(c2ccccc2)CC1 (centres unmarked) [at 50 µM (top of the series)] was activity change 3.836 (inactive).

For Cc1noc(C)c1NC(=O)Nc1ccc2c(c1)C(=O)N([C@@H](C)CO)C[C@@H](C)[C@@H](CN(C)C(=O)Nc1ccc3c(c1)OCO3)OCCCC[C@@H](C)O2 [at 50 µM (top of the series)] the result was activity change 29.72 (inconclusive). Result for COc1ccc2cc(CO)c3cc(OC)c(OC)cc3c2c1 [at 50 µM (top of the series)] was activity change 3.797 (inconclusive). c1cc2cc(-c3c(-c4ccc5c(c4)OCO5)noc3-c3ccsc3)ccc2[nH]1 [at 50 µM (top of the series)] read activity change 2.047 (inactive). Result for CN1OC[C@@H]2CN(C(=O)c3ccco3)[C@H](c3ccc(-c4ccc(C#N)cc4)cc3)C[C@@H]21 [at 50 µM (top of the series)] was activity change 10.51 (inactive).

With COc1cc(OC)nc(Oc2ccccc2C(=O)Oc2ccccc2Cl)n1 [at 50 µM (top of the series)] the assay gave activity change 10.74 (inconclusive). COc1cccc(OC)c1CNC(=O)CCSCc1ccccc1F [at 50 µM (top of the series)] gave activity change 20.69 (inconclusive). COc1ccc(CNC(=O)c2nc(S(=O)(=O)Cc3ccccc3)ncc2Cl)cc1 [at 50 µM (top of the series)] read activity change -7.904 (inconclusive). COc1ccc(C(=O)Cn2nnc(-c3ccccc3F)n2)cc1 [at 50 µM (top of the series)] gave activity change -1.314 (inactive).

Cc1nn(-c2ccccc2)c(C)c1CN(C)C(=O)c1ccc(S(=O)(=O)NCc2ccco2)cc1 [at 50 µM (top of the series)] read activity change -24.76 (inconclusive). For O=C(Nc1ccc2c(c1)OCCO2)c1cccnc1Oc1ccc(Cl)cc1 [at 50 µM (top of the series)] the result was activity change 14.86 (inactive). O=C(c1ccc2c3c(cccc13)CC2)N1CCN(c2ncccn2)CC1 [at 50 µM (top of the series)] read activity change -2.26 (inconclusive). With O=C(NC1CC1)c1cc2cc3ccccc3nc2s1 [at 50 µM (top of the series)] the assay gave activity change -15.97 (inactive).

Result for CN1CCN(c2nc(Nc3ccc(O)cc3)nc3ccccc23)CC1 [at 50 µM (top of the series)] was activity change 30.79 (inconclusive). CCCC#C/C(CCC)=C1\c2ccccc2C(=O)N1c1ccccc1 [at 50 µM (top of the series)] read activity change 35.3 (inconclusive). With O=S(=O)(c1ccccc1)N1CCN=C1SCc1cccc(Cl)c1 [at 50 µM (top of the series)] the assay gave activity change -15.93 (inconclusive). With NC(=O)c1ccsc1NC(=O)COC(=O)Cc1ccc(F)cc1 [at 50 µM (top of the series)] the assay gave activity change -3.136 (inconclusive).

Result for COc1ccc(C)cc1NC(=O)c1nn(C)cc1Br [at 50 µM (top of the series)] was activity change -19.58 (inconclusive). Result for COCCn1c(SCC(=O)Nc2ccccc2OC)nc2ccccc21 [at 50 µM (top of the series)] was activity change 25.95 (inconclusive). COc1ccc(CC(=O)NC(C)c2ccc3ccccc3c2)cc1 (centres unmarked) [at 50 µM (top of the series)] read activity change -23.59 (inconclusive). NS(=O)(=O)c1ccc(Nc2c([N+](=O)[O-])cncc2[N+](=O)[O-])cc1 [at 50 µM (top of the series)] gave activity change 27.75 (inconclusive).

The last 2 entries again:

{"compound": "COc1ccc(CC(=O)NC(C)c2ccc3ccccc3c2)cc1", "stereo": "centres unmarked", "tested on / at": "at 50 µM (top of the series)", "activity change": "-23.59", "call": "inconclusive"}
{"compound": "NS(=O)(=O)c1ccc(Nc2c([N+](=O)[O-])cncc2[N+](=O)[O-])cc1", "tested on / at": "at 50 µM (top of the series)", "activity change": "27.75", "call": "inconclusive"}